In publication PMC11811133 one finds binding data, which are given here for 6 molecules.

Protein sequences, listed by entry. Tags and fused reporters are not part of them.
UniProt Q9CR16: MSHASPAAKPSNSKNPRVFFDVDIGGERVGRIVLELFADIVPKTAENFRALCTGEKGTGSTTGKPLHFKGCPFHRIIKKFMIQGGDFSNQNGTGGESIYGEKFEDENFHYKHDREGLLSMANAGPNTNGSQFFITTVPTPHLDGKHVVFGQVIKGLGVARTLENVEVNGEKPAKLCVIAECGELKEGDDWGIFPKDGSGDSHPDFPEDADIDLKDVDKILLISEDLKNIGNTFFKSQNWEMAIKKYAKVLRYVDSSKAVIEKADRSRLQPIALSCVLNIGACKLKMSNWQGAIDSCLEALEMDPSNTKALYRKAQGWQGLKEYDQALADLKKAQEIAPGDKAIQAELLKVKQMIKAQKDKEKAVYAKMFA
UniProt Q62167: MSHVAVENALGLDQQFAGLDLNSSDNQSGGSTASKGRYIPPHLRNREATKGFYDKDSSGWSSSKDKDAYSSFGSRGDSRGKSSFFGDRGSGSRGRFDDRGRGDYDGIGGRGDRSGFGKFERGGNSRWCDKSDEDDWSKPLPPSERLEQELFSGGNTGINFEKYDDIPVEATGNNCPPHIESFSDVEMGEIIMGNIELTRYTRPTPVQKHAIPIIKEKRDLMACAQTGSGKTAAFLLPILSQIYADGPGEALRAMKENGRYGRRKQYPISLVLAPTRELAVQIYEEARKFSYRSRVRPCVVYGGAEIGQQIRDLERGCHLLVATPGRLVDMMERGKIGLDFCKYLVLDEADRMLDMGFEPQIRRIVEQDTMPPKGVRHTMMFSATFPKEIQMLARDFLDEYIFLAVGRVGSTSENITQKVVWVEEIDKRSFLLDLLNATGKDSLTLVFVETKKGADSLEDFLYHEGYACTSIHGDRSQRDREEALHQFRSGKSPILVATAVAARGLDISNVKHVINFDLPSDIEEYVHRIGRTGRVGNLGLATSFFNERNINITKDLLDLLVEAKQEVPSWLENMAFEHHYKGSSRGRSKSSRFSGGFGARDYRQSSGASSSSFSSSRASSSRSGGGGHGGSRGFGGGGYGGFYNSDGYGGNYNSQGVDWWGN
UniProt Q9EPL8: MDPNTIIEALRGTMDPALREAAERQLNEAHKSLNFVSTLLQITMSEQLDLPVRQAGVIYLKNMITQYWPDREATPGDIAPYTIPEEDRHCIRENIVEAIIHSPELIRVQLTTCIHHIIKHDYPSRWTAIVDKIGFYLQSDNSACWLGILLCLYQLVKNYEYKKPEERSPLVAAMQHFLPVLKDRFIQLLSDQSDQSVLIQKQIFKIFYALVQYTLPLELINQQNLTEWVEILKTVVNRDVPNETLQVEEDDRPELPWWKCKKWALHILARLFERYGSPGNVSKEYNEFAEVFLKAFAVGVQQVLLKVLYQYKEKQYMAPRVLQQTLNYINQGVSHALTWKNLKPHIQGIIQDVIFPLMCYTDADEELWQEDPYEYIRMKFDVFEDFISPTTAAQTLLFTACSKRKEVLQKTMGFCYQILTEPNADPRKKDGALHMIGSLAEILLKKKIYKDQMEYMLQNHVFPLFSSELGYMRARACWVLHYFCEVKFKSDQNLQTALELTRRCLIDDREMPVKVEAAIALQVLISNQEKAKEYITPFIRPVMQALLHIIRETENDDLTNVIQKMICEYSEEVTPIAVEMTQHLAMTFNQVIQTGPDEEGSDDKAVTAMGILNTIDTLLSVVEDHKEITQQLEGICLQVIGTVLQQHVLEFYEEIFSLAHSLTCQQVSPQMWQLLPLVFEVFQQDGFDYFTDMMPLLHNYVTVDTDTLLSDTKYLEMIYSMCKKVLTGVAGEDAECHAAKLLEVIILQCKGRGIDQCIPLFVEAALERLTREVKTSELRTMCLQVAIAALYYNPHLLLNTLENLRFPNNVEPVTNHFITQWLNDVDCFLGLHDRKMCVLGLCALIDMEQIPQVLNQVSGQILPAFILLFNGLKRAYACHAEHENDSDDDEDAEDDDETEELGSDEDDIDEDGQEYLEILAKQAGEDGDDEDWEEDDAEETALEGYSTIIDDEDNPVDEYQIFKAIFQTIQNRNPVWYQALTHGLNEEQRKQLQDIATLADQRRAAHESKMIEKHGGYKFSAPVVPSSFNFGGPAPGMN

No constants are given. Whether binding was seen depends on the method and setting. Binding seen in cells or lysates may run through a third protein. A yes stands for co-enrichment or nearness to the bait. Other partners may have been found. Where a sequence is shown, tags or fusion partners need not be part of it.

The assay concerns the target T1, HA-HDAC6 (full-length wild-type mouse histone deacetylase 6), expressed in N2a cells (mouse) (UniProt Q9Z2V5).
T1 sequence: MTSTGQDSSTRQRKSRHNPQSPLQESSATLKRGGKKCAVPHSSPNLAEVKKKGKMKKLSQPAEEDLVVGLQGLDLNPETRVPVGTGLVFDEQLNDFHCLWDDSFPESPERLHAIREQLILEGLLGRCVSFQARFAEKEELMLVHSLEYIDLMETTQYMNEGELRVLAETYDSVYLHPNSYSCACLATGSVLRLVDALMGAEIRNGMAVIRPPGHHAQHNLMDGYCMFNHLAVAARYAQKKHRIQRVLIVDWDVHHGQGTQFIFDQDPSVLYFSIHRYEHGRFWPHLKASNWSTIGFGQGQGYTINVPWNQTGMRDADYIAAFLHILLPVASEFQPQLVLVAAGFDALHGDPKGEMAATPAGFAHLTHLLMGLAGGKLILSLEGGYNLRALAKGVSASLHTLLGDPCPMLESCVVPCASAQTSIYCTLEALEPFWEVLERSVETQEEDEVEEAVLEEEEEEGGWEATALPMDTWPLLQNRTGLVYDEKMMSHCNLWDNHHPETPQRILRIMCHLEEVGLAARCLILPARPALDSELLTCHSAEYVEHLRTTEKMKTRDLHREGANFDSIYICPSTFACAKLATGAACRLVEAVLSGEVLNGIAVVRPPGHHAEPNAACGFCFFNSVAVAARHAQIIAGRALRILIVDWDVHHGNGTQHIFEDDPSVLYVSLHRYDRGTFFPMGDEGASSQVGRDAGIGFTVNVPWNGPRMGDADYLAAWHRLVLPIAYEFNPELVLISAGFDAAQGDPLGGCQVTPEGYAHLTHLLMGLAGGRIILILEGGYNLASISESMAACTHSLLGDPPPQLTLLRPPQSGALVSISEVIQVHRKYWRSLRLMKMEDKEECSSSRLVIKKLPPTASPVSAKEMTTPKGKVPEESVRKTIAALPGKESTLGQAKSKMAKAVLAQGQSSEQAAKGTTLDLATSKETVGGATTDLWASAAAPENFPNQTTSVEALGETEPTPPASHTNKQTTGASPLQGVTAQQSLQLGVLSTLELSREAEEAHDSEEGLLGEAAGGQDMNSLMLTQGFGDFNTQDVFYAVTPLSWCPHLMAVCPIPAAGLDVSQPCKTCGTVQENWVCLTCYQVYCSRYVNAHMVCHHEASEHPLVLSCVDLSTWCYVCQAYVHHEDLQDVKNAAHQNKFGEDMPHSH
The assay can be described thus: affinity purification with mass spectrometry; N2a cells transfected with HA-HDAC6 or HA-vector (15 ug, 48 h), NP-40 lysis buffer, HA-antibody immunoprecipitation, elution with 0.3% formic acid, DIA LC-MS/MS, SAINTexpress scoring; also cells in early HSV-1 infection (time-dependent interactome).

For “PPID, endogenous in N2a cells (from UniProt Q9CR16 1-370)”, the binding entry is given as “binds”. “DDX3X, endogenous in N2a cells (from UniProt Q62167 1-662)”: the binding result is recorded as “binds”. In the case of “IPO7, endogenous in N2a cells (from UniProt Q9EPL8 1-1038)”, the binding result is reported as “binds”.

B1: TRIM56 (tripartite motif protein 56), endogenous in N2a cells (protein, UniProt Q80VI1 1-734)
chain: MNSKVSSPTLLEALSSDFLACKICLEQLHTPKTLPCLHTYCQDCLAQLDIGGQVRCPECREIVPVPAEGVAAFKTNFFVNGLLDLVKARAPGDVHSGKPTCALCPLVGGKSSGGPATARCLDCADDLCQACADGHRCSRQTHKHRVVDLVGYRAGWYDEEARERQASQCPQHPGEALCFLCQPCSQLLCKDCRLGPHIDHPCLPLAEAVRSRKPGLEELLAGVDSNLVELEATRVAEKEALALLREQAASVGTQVEEAAERILKSLLAQKQEVLGQLRALVEAAEEATRERLTKIERQEQVAKAAAAFARRVLSLGLEAEILSLEGAITQRLRQLQDAPWTSGPTRCVLPQLELHPGLEDKNCHLLRLIFEEPKQSPKDSGKGGAGTQGGDEAQGQGDDRTKIGKQGGAQPLTPKEGKDQNPQEDDGVFIERGNRPNKKKKCKGRGKSVSREPSPILRPNLEGSGLLPRPVFSWSFPTRMPGDKRSPRITGLCPYGPQEILVADEQNRVLKRFSLNGDYKGTVQVPEGCSPCSVAALQNAVAFSANAKLYLVSPDGEIQWRRSLSLTQSSHAVAAMPCGDRVAVSVAGHVEVYKKDGSLATRFIPGGKASRGQRALVFLTTSPQGNFVGSDWQQNSVVFCDGLGQVIWEYKGPGLHGCQPGSVSVDKKGYIFLTLREVNKVVILDPKGSLLGDFLTAYHGLEKPRVTTMVDGKYLVVSLSNGTIHVFRVRFPDS
On to B1, for which the binding result is “binds”.

B2: SHMT2, endogenous in N2a cells (protein, UniProt Q9CZN7 30-504)
chain: KVAQTQAGEAAGGWTGQESLSDSDPEMWELLQREKDRQCRGLELIASENFCSRAALEALGSCLNNKYSEGYPGKRYYGGAEVVDEIELLCQRRALEAFDLDPAQWGVNVQPYSGSPANLAAYTALLQPHDRIMGLDLPDGGHLTHGYMSDVKRISATSIFFESMPYKLNPQTGLIDYDQLALTARLFRPRLIIAGTSAYARLIDYARMREVCDEVRAHLLADMAHISGLVAAKVIPSPFKYADVVTTTTHKTLRGARSGLIFYRKGVRTVDPKTGKEIPYTFEDRINFAVFPSLQGGPHNHAIAAVAVALKQACTPMFREYSLQVLRNAQAMADALLKRGYSLVSGGTDTHLVLVDLRPKGLDGARAERVLELVSITANKNTCPGDRSAITPGGLRLGAPALTSRQFREDDFRRVVDFIDEGVNIGLEVKRKTAKLQDFKSFLLKDPETSQRLANLRQQVEQFARGFPMPGFDER
As for B2, the binding entry is “binds”.

B3: ZC3HAV1, endogenous in N2a cells (protein, UniProt Q3UPF5 1-996)
chain: MTDPEVFCFITKILCAHGGRMTLEELLGEISLPEAQLYELLKAAGPDRFVLLETGDQAGITRSVVATTRARVCRRKYCQRPCDSLHLCKLNLLGRCHYAQSQRNLCKYSHDVLSEQNFQVLKNHELSGLNQEELAVLLVQSDPFFMPEICKSYKGEGRKQICGQPQPCERLHICEHFTRGNCSYLNCLRSHNLMDRKVLAIMREHGLSSDVVQNIQDICNNKHTRRNPPSMRAPHPHRRGGAHRDRSKSRDRFHHNSLEVLSTVSPLGSGPPSPDVTGCKDPLEDVSADVTQKFKYLGTQDRAQLSSVSSKAAGVRGPSQMRASQEFLEDGDPDGLFSRNRSDSSTSRTSAAGFPLVAAQRNEAGAMKMGMPSGHHVEVKGKNEDIDRVPFLNSYIDGVTMEEATVSGILGKRATDNGLEEMILSSNHQKSVAKTQDPQTAGRITDSGQDTAFLHSKYEENPAWPGTSTHNGPNGFSQIMDETPNVSKSSPTGFGIKSAVTGGKEAVYSGVQSLRSHVLAMPGETTTPVQGSNRLPPSPLSSSTSHRVAASGSPGKSSTHASVSPASEPSRMMMMMSDPAEYSLCYIVNPVSPRMDDHGLKEICLDHLYRGCQQVNCNKNHFHLPYRWQLFILPTWMDFQDMEYIERAYCDPQIEIIVIEKHRINFKKMTCDSYPIRRLSTPSFVEKTLNSVFTTKWLWYWRNELNEYTQYGHESPSHTSSEINSAYLESFFHSCPRGVLQFHAGSQNYELSFQGMIQTNIASKTQRHVVRRPVFVSSKDVEQKRRGPDHQPVMPQADALTLFSSPQRNASTVSSNEYEFIELNNQDEEYAKISEQFKASMKQFKIVTIKRIWNQKLWDTFERKKQKMKNKTEMFLFHAVGRIHMDYICKNNFEWILHGNREIRYGKGNYFTKEAMYSHKSCSYDSRGTVMFVARVLVGSVIEGNMTLSSPPALYDSCVDTRLNPSVFVIFRKEQIYPEYVIEYMELEKEKGCIIS
Turning to B3, the binding entry is “binds”.
